Earlier results as cited in EP2228055A1, “Riluzole liquid emulsions” (ITALFARMACO S.p.A., priority 2009, dated 2010).

- solubility (pH 1.2): about 12 mg/mL
- solubility in water (water): about 0.3 mg/mL
Compound: Nc1nc2ccc(OC(F)(F)F)cc2s1 [Riluzole, 6-(trifluoromethoxy)benzothiazol-2-amine]
